Measurements taken from publication PMC7819943, “Rice protein-binding microarrays: a tool to detect cis-acting elements near promoter regions in rice”.
The other results are listed elsewhere or left out.

Target: T1, OsSMF1 (Oryza sativa, UniProt Q6ZLB0 1-436)
T1 sequence: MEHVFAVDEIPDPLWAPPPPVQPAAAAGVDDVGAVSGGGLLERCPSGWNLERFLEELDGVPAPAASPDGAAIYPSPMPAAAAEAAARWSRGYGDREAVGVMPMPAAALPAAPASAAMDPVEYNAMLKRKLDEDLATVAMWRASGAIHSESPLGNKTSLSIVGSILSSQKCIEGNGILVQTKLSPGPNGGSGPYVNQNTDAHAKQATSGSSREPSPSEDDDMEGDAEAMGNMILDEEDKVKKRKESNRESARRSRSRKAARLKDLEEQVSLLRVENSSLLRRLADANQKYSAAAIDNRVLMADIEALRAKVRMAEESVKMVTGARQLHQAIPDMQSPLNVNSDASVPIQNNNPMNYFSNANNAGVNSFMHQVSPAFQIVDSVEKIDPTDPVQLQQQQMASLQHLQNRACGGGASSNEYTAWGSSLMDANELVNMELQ
Test: protein-binding microarray (RPBM); PBS, 2% BSA, 51.3 ng/ul salmon testes DNA, 50 uM zinc acetate, 200 nM TF, 25 C, 1 h; high values mean tight binding
Settings: protein: recombinant; tags: N-terminal polyhistidine and DsRed monomer fusion (pET32a); chain copies: 2; label: CyDye5-dUTP incorporated in the synthesized complementary strand; 3' TTTTT single-stranded linker to array surface; dsDNA, one strand shown
How it was run: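 A custom Agilent array was converted to double-stranded form by primer extension with Cy5-dUTP and blocked with 2% BSA. Protein at 200 nM in PBS with 2% BSA, salmon testes DNA and 50 µM zinc acetate was applied for 1 h at 25 °C, followed by washing. The proteins were polyhistidine–DsRed N-terminal fusions of transcription factors, expressed in E. coli BL21-CodonPlus and Ni–NTA-purified. The binding signal is per-feature fluorescence intensity (arbitrary units) from an Axon 4000B scanner.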

Row | Sequence | binding signal
1 | GCAACAGCTATAATTCGTTGCTGACTATAGCCCACATGCCCGGAGTCACCTAGTGCAG | 4450 fluorescence intensity (a.u.)
2 | GCTGCTCTGCTTCTGCTTGCCTGTGCTGTGCTGTGTGTGTCGGAGTCACCTAGTGCAG | 3340 fluorescence intensity (a.u.)
3 | GGAAAAGAGAGTAGGGTGCTGACGTGGACACCCTGACGTGCGGAGTCACCTAGTGCAG | 23500 fluorescence intensity (a.u.)
4 | GTCAAATCATGGCGTAATTGGGCTTAAAAGATTCGTCTCGCGGAGTCACCTAGTGCAG | 35400 fluorescence intensity (a.u.)
5 | AGTGGCATCAAGTCAGCTACTGTTCTTGTCTGTGATTGATCGGAGTCACCTAGTGCAG | 3690 fluorescence intensity (a.u.)
6 | GGTATTAACGTATGATTAATTGAGTTTCAATTATTACAAACGGAGTCACCTAGTGCAG | 25200 fluorescence intensity (a.u.)
7 | TTCAGCGTCATACAAGGTCAGACATGTCAATGTCATCCTCCGGAGTCACCTAGTGCAG | 3820 fluorescence intensity (a.u.)
8 | GATTTGAACTCAGGGAACAACTCATCGTGCAACAACTTTGCGGAGTCACCTAGTGCAG | 16400 fluorescence intensity (a.u.)
9 | GGCATTCTCTGTACTTTGGCTGTCACGCACGCACGCGTGGCGGAGTCACCTAGTGCAG | 3250 fluorescence intensity (a.u.)
10 | CCTTGCTGAGCTGGTCGGTGTCGTGTACCAAGAAACCCTCCGGAGTCACCTAGTGCAG | 8150 fluorescence intensity (a.u.)
11 | CGACGACGGATGCGACGATGGGTGACGGCGGAGTGGCGGCCGGAGTCACCTAGTGCAG | 3390 fluorescence intensity (a.u.)
12 | ATAAGACTTGATGACAACAACCATCACAGGGGTGCTTCTGCGGAGTCACCTAGTGCAG | 3230 fluorescence intensity (a.u.)
13 | CGGCTATCGATATATACATAGGTGGTGGATGCGTGCGTGCCGGAGTCACCTAGTGCAG | 3640 fluorescence intensity (a.u.)
14 | GTTGCAGAGCAGCTCGCGCCGCGCGCGTACACTCGCTTTGCGGAGTCACCTAGTGCAG | 6780 fluorescence intensity (a.u.)
15 | GTTAGGATATCCGGTGTTGGTTCATTATAGTCTGCACTTACGGAGTCACCTAGTGCAG | 3390 fluorescence intensity (a.u.)
16 | GCTTGTATATACGTCAGCTGTCTGGGCCTTCCAATGGACGCGGAGTCACCTAGTGCAG | 5820 fluorescence intensity (a.u.)
17 | CCTTACCCCTACCTTCCACCGCACTCTCAAACCCATCCGGCGGAGTCACCTAGTGCAG | 3180 fluorescence intensity (a.u.)
18 | CTGTCCATTGATCTGTCCCTGGCAGCGACGTGACGTCCCACGGAGTCACCTAGTGCAG | 4890 fluorescence intensity (a.u.)
19 | CTTCGTTTTAATCACGTCAACCAGCATTTTGGCTTTTCCACGGAGTCACCTAGTGCAG | 3430 fluorescence intensity (a.u.)
20 | TGTAGCCAATTGGTTTCTATAAACAGAAAAGTGGTCGTCCCGGAGTCACCTAGTGCAG | 20700 fluorescence intensity (a.u.)
21 | GGTAGAGGCCAGGCCATAGATCGAGATCGATCTGCAGGTGCGGAGTCACCTAGTGCAG | 20500 fluorescence intensity (a.u.)

Row | Sequence | binding signal
22 | ATGGGTTGCACATGACTAGTCCAGTTCTCGCTGTCAGCATCGGAGTCACCTAGTGCAG | 4480 fluorescence intensity (a.u.)
23 | GGATCAGGACGCGTGGGAGTCAAAACCTGGTCTCCTCGGTCGGAGTCACCTAGTGCAG | 3340 fluorescence intensity (a.u.)
24 | GAAATGCCAAGTGTGAGAAGATGACGCACCCAAATGCAACCGGAGTCACCTAGTGCAG | 5640 fluorescence intensity (a.u.)
25 | CGCGGCGGCGGCGGCGCGAAGGCACGTGGCACGGCGCCGCCGGAGTCACCTAGTGCAG | 3420 fluorescence intensity (a.u.)
26 | CTTCCATCATTATAGATACTCATGTCACGTGGACATCACGCGGAGTCACCTAGTGCAG | 4160 fluorescence intensity (a.u.)
27 | AGAGAGGGAGTGATGACGTGGCATGTTGACATGTGGGGCCCGGAGTCACCTAGTGCAG | 19700 fluorescence intensity (a.u.)
28 | TGCGTGTGGAAAGTAAACTAAGGAACTCAGACTAAGAGGGCGGAGTCACCTAGTGCAG | 3150 fluorescence intensity (a.u.)
29 | TTTCTTAATACACAGTTGTACTTGATGAAACCTTAGGACGCGGAGTCACCTAGTGCAG | 6130 fluorescence intensity (a.u.)
30 | CAGCGCCACCGCTCAGCACGTCACCTGATTAGGCTTTCAACGGAGTCACCTAGTGCAG | 8100 fluorescence intensity (a.u.)
31 | CTCCGCCTCATTATAAGTACAATCATAGGTTTTCACGTCACGGAGTCACCTAGTGCAG | 3210 fluorescence intensity (a.u.)
32 | TTTCTTTTCAGACGATGACGTCACACCGTTCTTCATGTATCGGAGTCACCTAGTGCAG | 12300 fluorescence intensity (a.u.)
33 | CCGTGATTAGAAGTAGTACTAACGTGACGTATATATATCCCGGAGTCACCTAGTGCAG | 5900 fluorescence intensity (a.u.)
34 | GAGTGGGGAGAGAGTCAAGAGAGGGGCGTGTAGCACACGTCGGAGTCACCTAGTGCAG | 4900 fluorescence intensity (a.u.)
35 | CTGCCCGACTACCGCGTGCTCAATCGCCGCGGTGGACCACCGGAGTCACCTAGTGCAG | 3210 fluorescence intensity (a.u.)
36 | TGAAGTTAGTGGGATATTTAGGCCACGTGTCCTGACAGCACGGAGTCACCTAGTGCAG | 13300 fluorescence intensity (a.u.)
37 | TGCGCGGCGGCCGTCCGTCGATCATGATGAGGAGCTCCATCGGAGTCACCTAGTGCAG | 21900 fluorescence intensity (a.u.)
38 | TAACATTGATTGTTATGTCACTTGTCTGTGGATCAACTCTCGGAGTCACCTAGTGCAG | 3930 fluorescence intensity (a.u.)
39 | TTGAGCATAGTAAGTTTTGACCTATAGTGAGGCTGTACAACGGAGTCACCTAGTGCAG | 3290 fluorescence intensity (a.u.)
40 | GCCATGGGCTCGTCACGCAAGCAAAATTCCTCATTTCTCACGGAGTCACCTAGTGCAG | 28500 fluorescence intensity (a.u.)
41 | ACACCCACAATGGTTATCTATAAGCTCTCTACAAGAGATCCGGAGTCACCTAGTGCAG | 30200 fluorescence intensity (a.u.)
42 | GGGAACGGTGACCATGTATCTTCTGGCTGGTGATGTGTGACGGAGTCACCTAGTGCAG | 6030 fluorescence intensity (a.u.)

Reprinted: entries 27–29
Row | Sequence | binding signal
27 | AGAGAGGGAGTGATGACGTGGCATGTTGACATGTGGGGCCCGGAGTCACCTAGTGCAG | 19700 fluorescence intensity (a.u.)
28 | TGCGTGTGGAAAGTAAACTAAGGAACTCAGACTAAGAGGGCGGAGTCACCTAGTGCAG | 3150 fluorescence intensity (a.u.)
29 | TTTCTTAATACACAGTTGTACTTGATGAAACCTTAGGACGCGGAGTCACCTAGTGCAG | 6130 fluorescence intensity (a.u.)
